Results published in PubChem BioAssay AID662 (National Center for Advancing Translational Sciences (NCATS), 2007).
This is one part of the list. These are further read-outs of the screen, such as a control signal, another cell line or another target. No call is given for them. The list favours compounds with an active or inconclusive main result. Words in brackets tell the shape of the fitted curve; partial curves, single points and poor fits give uncertain potencies.

Experiment: Cell signaling CRE-BLA (Fsk stim)
Conditions: CHO CRE-bla reporter (cAMP response element driving beta-lactamase), forskolin EC10, beta-lactamase ratio; measured here: 460 nm blue channel
In short: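 Titrated compounds plus EC10 NKH 477 on CHO CRE-bla cells, 3 h, 37 °C. CCF4, 2 h RT. Ratio 460/530 nm → AC50.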

Structure (SMILES) | AC50
CN1CCc2cc(NC(=O)Nc3cccnc3)ccc21 | 15.8 µM [falling, partial curve]
CCOc1ccc(OCC)c(NC(=O)CSc2nc3c(c(=O)n(C)c(=O)n3C)n2C(C)C)c1 | 3.98 µM [rising, partial curve]
Cc1cccc(Cn2c(N(C)CCO)nc3c2c(=O)[nH]c(=O)n3C)c1 | 12.6 µM [rising, partial curve]
CNC(=O)N(C1=NCC(C)S1)c1ccc(F)cc1F (stereo not drawn) | 2.51 µM [rising, single point]
COc1ccc(OCc2nnc3n2N=C(c2ccc(OC)cc2)CS3)cc1 | 2.51 µM [rising, full curve]
Cn1cccc1C(=O)N1CCN(c2cccc(C(F)(F)F)c2)CC1 | 0.158 µM [falling, full curve, poor fit]
COc1ccc(-c2csc3c2[N+]2=CCC=C2C3=O)cc1 | 3.16 µM [rising, partial curve]
COc1cc(NC(=O)c2ccccc2)c(OC)cc1NC(=O)CN1CCOCC1 | 10 µM [rising, partial curve]
COc1ccc(C2=NOC(C(=O)NC(C)(C)C)C2)cc1 (stereo not drawn) | 12.6 µM [rising, single point]
Cc1cccc2c(=O)cc(C)n(CC(=O)N3CCCCC3)c12 | 3.16 µM [rising, partial curve]
CCCCSc1nnc(-c2ccc(C)cc2)o1 | 0.631 µM [rising, partial curve, poor fit]
O=C(NCCN1CCOCC1)c1cccc(Cl)c1 | 25.1 µM [rising, single point]
O=C(c1cnn2c(C(F)F)cc(-c3ccccc3)nc12)N1CCN2CCCC2C1 (stereo not drawn) | 25.1 µM [rising, single point]
COc1ccc(S(=O)(=O)n2nc(-c3cc(OC)c(OC)c(OC)c3)cc2N)cc1OC | 10 µM [rising, partial curve]
O=S(=O)(NCc1cccs1)c1cccc2cccnc12 | 0.398 µM [falling, partial curve, poor fit]
COc1ccc(-c2n[nH]c(C)c2-c2ccc(Cl)cc2)c(O)c1OC | 12.6 µM [falling, partial curve, poor fit]
c1ccc(-n2nnnc2-n2nnc3ccccc32)cc1 | 5.01 µM [falling, single point]
Cc1cccc(N2CCN(C(=O)C3CCN(S(=O)(=O)c4cccc5nsnc45)CC3)CC2C)c1 (stereo not drawn) | 0.00398 µM [falling, full curve, poor fit]
CC(C)(C)NC(=O)CN(Cc1cccnc1)C(=O)c1csnn1 | 20 µM [falling, single point]
CCCCCCC(=O)N1CCC(c2nc3c(nnn3Cc3ccccc3Cl)c(=O)[nH]2)CC1 | 3.16 µM [rising, partial curve]
COc1ccccc1C1SCCN1S(C)(=O)=O (stereo not drawn) | 6.31 µM [falling, partial curve]
Cc1nc2sc3c(c2c2nc(-c4ccco4)nn12)CCCC3 | 12.6 µM [rising, single point]
O=C(NCCCN1CCN(Cc2ccccc2)CC1)C1CCN(S(=O)(=O)N2CCCC2)CC1 | 0.00316 µM [falling, full curve, poor fit]

Structure (SMILES) | AC50
Cc1ccc2c(c1)cc(C)c1nnc(SCC(=O)NCc3ccco3)n12 | 15.8 µM [rising, single point]
Cc1ccc(C)c(N(C)C(=O)COc2cc(=O)n(C)c3ccccc23)c1 | 20 µM [rising, single point]
Cc1nc2cnc(N3CCOCC3)nc2n(CCc2ccccc2)c1=O | 15.8 µM [rising, partial curve]
CCn1c(COc2ccccc2)nnc1SCC(=O)C(C)(C)C | 15.8 µM [rising, partial curve]
O=c1c(-c2ccccc2)nc2cnc(Oc3cccc(Cl)c3)nc2n1C1CC1 | 10 µM [rising, single point]
Cc1cc(Nc2ccc(F)cc2C)n2ncnc2n1 | 25.1 µM [rising, single point]
Cn1c(=O)c(-c2ccc(Cl)cc2)nc2cnc(Nc3ccccc3)nc21 | 12.6 µM [rising, partial curve]
Cc1ccc(Cc2c(C)nc3nc(SCC(=O)NCc4ccco4)nn3c2C)cc1 | 15.8 µM [rising, partial curve]
CCOC(=O)C1CCN(C(c2ccc(OC)c(OC)c2)c2sc3nc(C)nn3c2O)CC1 (stereo not drawn) | 12.6 µM [rising, partial curve]
Cc1ccc2cccc(S(=O)(=O)Nc3ccc4c(c3)OCO4)c2n1 | 20 µM [falling, single point]
C1CCN(c2nc(N3CCCC3)nc(N3CCNCC3)n2)C1 | 25.1 µM [falling, single point]
CCOC(=O)N1CCC(N2C(=O)c3ccccc3C2Nc2ccc3c(C)cc(=O)oc3c2)CC1 (stereo not drawn) | 15.8 µM [rising, partial curve]
Cc1ccc(-c2nn(C)c(=O)c3ccccc23)cc1CO | 12.6 µM [rising, partial curve]
COc1ccc2ccccc2c1C1CC(=O)N2CN(C3CCCCC3)CSC2=C1C#N (stereo not drawn) | 10 µM [falling, partial curve]
COc1ccc2c(c1)C(=O)N(CCc1ccc(S(=O)(=O)NC(=O)NC3CCCCC3)cc1)C(=O)C2(C)C | 7.94 µM [rising, partial curve]
Cc1ccc2oc(=O)c3cc(C(=O)N4CCN(c5ncccn5)CC4)sc3c2c1 | 3.16 µM [rising, single point]
N#CC1=C2C=CC=CN2CC1=O | 25.1 µM [rising, partial curve, poor fit]
COc1ccc2[nH]cc(CCNc3nc(-c4cccc(NS(C)(=O)=O)c4)nc4ccccc34)c2c1 | 10 µM [falling, single point]
Cc1cc(C)n(-c2cc(-n3nc(C)cc3C)ncn2)n1 | 0.316 µM [rising, full curve]
C=CCn1c(SCC(=O)NC2CCS(=O)(=O)C2)nc2scc(C3CC3)c2c1=O (stereo not drawn) | 25.1 µM [rising, single point]
Cc1nc2cnc(N3CCOCC3)nc2n(Cc2cccs2)c1=O | 2 µM [rising, full curve]
Cn1c(=O)c2c(nc(CN3CCN(c4cccc(Cl)c4)CC3)n2CCc2ccccc2)n(C)c1=O | 12.6 µM [rising, partial curve]
COC(=O)CCc1c(C)c(C#N)c2nc3ccccc3n2c1N1CCCC1 | 12.6 µM [rising, partial curve]

Structure (SMILES) | AC50
CCOC(=O)CSc1nnc(-c2ccc(S(=O)(=O)N3CCC(C)CC3)cc2)o1 | 25.1 µM [falling, single point]
Cc1cc(N2CCN(c3ccccc3)CC2)nc(-c2ccccc2)n1 | 0.00794 µM [falling, full curve, poor fit]
Cc1nc2c(C(=O)NCc3ccc4c(c3)OCO4)c[nH]n2c(=O)c1Cc1ccccc1F | 20 µM [falling, single point]
O=C(Oc1nsnc1N1CCOCC1)N(c1ccccc1)c1ccccc1 | 25.1 µM [rising, single point]
CCOC(=O)C1=C(c2ccccc2)OC(N)=C(C#N)C1C(C)C (stereo not drawn) | 7.94 µM [rising, partial curve]
COc1cccc2cc(C(=O)NC(C)C3CCCO3)c(=O)oc12 (stereo not drawn) | 5.01 µM [falling, partial curve]
O=C(OCc1ccc(F)cc1Cl)c1ccccn1 | 10 µM [falling, partial curve]
C[C@H](NC[C@H](O)CP(=O)(O)Cc1ccccc1)c1ccc(Cl)c(Cl)c1 | 15.8 µM [falling, partial curve, poor fit]
O=C(Cn1ncc2c1-c1ccccc1OC2)Nc1nc2ccccc2s1 | 10 µM [falling, single point]
COc1ccc(CNC(=O)C(C)OC(=O)c2cccn2C)cc1 (stereo not drawn) | 3.16 µM [rising, single point]
CCOC(=O)N1CCC(Nc2nc3ccccc3n3nnnc23)CC1 | 15.8 µM [rising, single point]
CCCc1nc2sc3c(c2c(=O)n1N)CCC3 | 20 µM [rising, single point]
O=C1CCCN1CN(C(=O)c1ccc2c(c1)OCO2)c1ccc(F)cc1 | 0.0794 µM [rising, full curve]
Cn1cc(SCC(=O)Nc2nc3ccccc3s2)c2ccccc21 | 15.8 µM [falling, partial curve]
c1cncc(-c2nnc(SCc3cccc4ccccc34)o2)c1 | 12.6 µM [rising, single point]
COc1ccc([C@@H]2Sc3ccccc3N(CCN(C)C)C(=O)[C@@H]2OC(C)=O)cc1 | 31.6 µM [falling, single point]
CCOC(=O)c1ccc2nc3c(cc2c1)CCS3 | 25.1 µM [rising, single point]
O=c1c(-c2ccc(F)cc2)nc2cnc(N3CCOCC3)nc2n1-c1ccccc1 | 5.01 µM [rising, partial curve]
C/C(=C1\SC(N2CCOCC2)=NC1=O)c1ccccc1 | 0.00501 µM [falling, full curve]
Cc1nc(NC(=O)CSc2nc3cccnc3n2C2CCCCC2)sc1C | 2.51 µM [rising, full curve, poor fit]
COc1ccc(N(C(=O)CNC(=O)c2ccco2)C(C(=O)NC2CCCCC2)c2ccco2)cc1 (stereo not drawn) | 25.1 µM [falling, single point]
O=C(CSc1ccc2nnc(-c3ccccc3)n2n1)N1CCN(c2ccccc2)CC1 | 5.01 µM [rising, partial curve]

A section from the list above:
Structure (SMILES) | AC50
CNC(=O)N(C1=NCC(C)S1)c1ccc(F)cc1F (stereo not drawn) | 2.51 µM [rising, single point]
COc1ccc(OCc2nnc3n2N=C(c2ccc(OC)cc2)CS3)cc1 | 2.51 µM [rising, full curve]
Cn1cccc1C(=O)N1CCN(c2cccc(C(F)(F)F)c2)CC1 | 0.158 µM [falling, full curve, poor fit]
COc1ccc(-c2csc3c2[N+]2=CCC=C2C3=O)cc1 | 3.16 µM [rising, partial curve]
COc1cc(NC(=O)c2ccccc2)c(OC)cc1NC(=O)CN1CCOCC1 | 10 µM [rising, partial curve]
